Reference: paper PMC4851402, “Validation of N-myristoyltransferase as Potential Chemotherapeutic Target in Mammal-Dwelling Stages of Trypanosoma cruzi” (PLoS Neglected Tropical Diseases, 2016)

Assays:
[1] = tested on: Purified ICAs of T. cruzi; assay type: cell-based, Trypanosoma cruzi (Y strain); conditions: selectivity index, U2OS cells vs purified ICAs
Protocol: Intracellular amastigote (ICA) forms were purified as described. Briefly, 5 x 10^6 LLC-MK2 cells were seeded in a 150-cm^2 tissue culture flask (NUNC, Thermo Scientific) and cells were grown for 3–4 days to reach confluency of ~2 x 10^7 cells per flask. The medium was then replaced with fresh complete medium and host cells were infected with 1 x 10^8 TCT (multiplicity of infection (MOI) ≈ 5). After 5 days, the infected monolayers were gently detached by scraping and resuspended in 5 mL phosphate-buffered saline (PBS). The suspension containing the infected cells was next transferred to an M-tube (Miltenyi Biotec Inc., San Diego, CA). This tube bears a special stator and rotor that allows for tissue homogenization. In addition, it has a pre-inserted mesh that retains larger particles, removing them from the homogenized sample. The tube was then placed in the gentleMACS Dissociator (Miltenyi Biotec) for the automated disruption of host cells. The homogenized sample containing the parasites was then passed through a column containing anion exchange preswollen microgranular diethylaminoethyl cellulose (DE52, Whatman, Sigma-Aldrich).
DMSO control wells contained 30 μL 6% DMSO, whereas wells for the negative control contained 1% hydrogen peroxide in DMEM. U2OS cells were resuspended in DMEM, 10% HI-FBS, to give a cell density of 2 x 10^5 cells/mL, while ICA forms were resuspended in DMEM, 10% HI-FBS, to a final density of 1 x 10^7 per well. Epi forms were resuspended in LIT medium to a density of 1 x 10^6 parasites per well. Hundred and fifty microliters of the suspension containing either host cells or parasites were added per well. Following 47- and 23-h incubation at 37°C for mammalian cells and ICA, respectively, a mixture of propidium iodide (Invitrogen) and Hoechst dye (Invitrogen) diluted in culture media (1 μg/mL each) was added to the plates, which were then further incubated for 1 h at 37°C. […] In the case of Epi, after 68-h incubation at 28°C, 18 μL Alamar Blue (AbD Serotec, Raleigh, NC) were added per well. Following an additional 4-h incubation, the plate was read in a microplate fluorometer (Thermo Scientific) at excitation 560 nm, emission 590 nm. Three independent experiments were performed in triplicate wells.
(§1) EC50 were determined from three independent experiments.

[2] = tested on: T. cruzi intracellular amastigote proliferation; assay: In vitro T. cruzi intracellular proliferation assay in infected U2OS cells, high-content imaging; assay type: cell-based, Trypanosoma cruzi (Y strain); conditions: selectivity index, U2OS cells vs T. cruzi proliferation assay
Protocol: DMSO control wells contained 30 μL 6% DMSO. Human […] (U2OS cells) were diluted in DMEM, 10% heat inactivated-fetal bovine serum (HI-FBS) to give a cell density of 2 x 10^5 cells/mL. T. cruzi trypomastigotes were resuspended in DMEM, 10% HI-FBS to a final density of 1.2 x 10^7. Cells and parasites were mixed a ratio of 4 volumes of cells plus 1 volume of parasites. 150 μL of the mixture were dispensed per well. Plates were incubated for 48 h. After the incubation period, media was removed from the wells and 100 μL 4% paraformaldehyde (PFA) were added. After 15 min of incubation at room temperature, PFA was removed and cells and parasites were stained with Draq5 (BioStatus, Leicestershire, UK) at a concentration of 5 μM diluted in PBS. The plates were then read in a bioimager system as described below. Three independent experiments were performed in triplicate wells.
Filter sets appropriate for the excitation and emission spectra of Draq5 were utilized. Images from four fields (2 x 2 montage) were acquired per well with a 20x objective. To perform the host cell segmentation and counting of parasites, the BD AttoVision v1.6.2 Sub Object analysis was used. […]
as §1

Cc1c(NS(=O)(=O)c2c(Cl)cc(-c3ccnc(N4CCNCC4)c3)cc2Cl)c(CC(C)C)nn1C [Compound 1]
Purified ICAs S.I. [1]: 7.0

Cc1nn(C)c(C)c1NS(=O)(=O)c1c(Cl)cc(CCCN2CCN(C)CC2)cc1Cl [Compound 3]
T. cruzi proliferation assay S.I. [2]: > 4.85

Cc1nn(C)c(C)c1N(C(F)F)S(=O)(=O)c1c(Cl)cc(CCCC2CCN(C)CC2)cc1Cl [Compound 5]
Purified ICAs S.I. [1]: 190.0

Cc1nn(C)c(C)c1N(CC(F)(F)F)S(=O)(=O)c1c(Cl)cc(CCCC2CCN(C)CC2)cc1Cl [Compound 7]
Purified ICAs S.I. [1]: 1.3

Cc1nn(C)c(C)c1N(C(F)F)S(=O)(=O)c1c(Cl)cc(CCCCC2CCN(C)CC2)cc1Cl [Compound 8]
Purified ICAs S.I. [1]: 595.0
